No constants are given. Whether binding was seen depends on the method and setting. In cells and extracts the contact can be indirect. Here binding means that the protein was enriched with, or labelled near, the bait; the list need not be complete.
Biological target: HA-Lola29M[Δ1-150]-V5 (Drosophila melanogaster) (UniProt Q9V5M3)
Experiment: affinity purification with mass spectrometry; HA-Lola29M[Δ1-150]-V5 expressed in S2 cells, immuno-purified with anti-V5-tag magnetic beads, trypsinized, LC-MS/MS

Chains of the proteins cited; added tags and fusions are not shown. Lines headed by an entry give the natural chain unless they say otherwise; changes in a name come on top.
UniProt Q9V5M3: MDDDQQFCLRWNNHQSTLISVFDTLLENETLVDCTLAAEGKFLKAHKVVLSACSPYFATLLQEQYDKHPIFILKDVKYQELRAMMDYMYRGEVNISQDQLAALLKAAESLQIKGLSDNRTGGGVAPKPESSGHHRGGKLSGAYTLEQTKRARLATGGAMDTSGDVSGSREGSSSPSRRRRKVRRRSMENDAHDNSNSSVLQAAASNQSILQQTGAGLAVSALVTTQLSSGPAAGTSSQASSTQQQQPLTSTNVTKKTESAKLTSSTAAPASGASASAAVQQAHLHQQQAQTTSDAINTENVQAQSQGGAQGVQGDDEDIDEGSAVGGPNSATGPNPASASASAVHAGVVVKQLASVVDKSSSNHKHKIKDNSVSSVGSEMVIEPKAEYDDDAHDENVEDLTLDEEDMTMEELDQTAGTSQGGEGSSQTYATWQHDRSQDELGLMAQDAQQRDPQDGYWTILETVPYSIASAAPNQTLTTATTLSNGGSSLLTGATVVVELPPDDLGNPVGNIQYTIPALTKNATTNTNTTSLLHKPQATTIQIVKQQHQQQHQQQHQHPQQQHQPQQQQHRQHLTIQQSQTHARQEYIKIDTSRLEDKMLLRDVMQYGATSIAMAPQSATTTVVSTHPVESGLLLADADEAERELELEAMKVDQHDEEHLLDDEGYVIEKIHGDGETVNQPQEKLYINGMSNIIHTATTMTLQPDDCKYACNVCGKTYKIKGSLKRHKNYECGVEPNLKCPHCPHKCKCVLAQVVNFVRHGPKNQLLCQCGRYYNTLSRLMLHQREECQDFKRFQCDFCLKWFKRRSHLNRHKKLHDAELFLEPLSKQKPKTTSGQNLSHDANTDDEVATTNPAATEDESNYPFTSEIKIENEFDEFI
UniProt Q24311: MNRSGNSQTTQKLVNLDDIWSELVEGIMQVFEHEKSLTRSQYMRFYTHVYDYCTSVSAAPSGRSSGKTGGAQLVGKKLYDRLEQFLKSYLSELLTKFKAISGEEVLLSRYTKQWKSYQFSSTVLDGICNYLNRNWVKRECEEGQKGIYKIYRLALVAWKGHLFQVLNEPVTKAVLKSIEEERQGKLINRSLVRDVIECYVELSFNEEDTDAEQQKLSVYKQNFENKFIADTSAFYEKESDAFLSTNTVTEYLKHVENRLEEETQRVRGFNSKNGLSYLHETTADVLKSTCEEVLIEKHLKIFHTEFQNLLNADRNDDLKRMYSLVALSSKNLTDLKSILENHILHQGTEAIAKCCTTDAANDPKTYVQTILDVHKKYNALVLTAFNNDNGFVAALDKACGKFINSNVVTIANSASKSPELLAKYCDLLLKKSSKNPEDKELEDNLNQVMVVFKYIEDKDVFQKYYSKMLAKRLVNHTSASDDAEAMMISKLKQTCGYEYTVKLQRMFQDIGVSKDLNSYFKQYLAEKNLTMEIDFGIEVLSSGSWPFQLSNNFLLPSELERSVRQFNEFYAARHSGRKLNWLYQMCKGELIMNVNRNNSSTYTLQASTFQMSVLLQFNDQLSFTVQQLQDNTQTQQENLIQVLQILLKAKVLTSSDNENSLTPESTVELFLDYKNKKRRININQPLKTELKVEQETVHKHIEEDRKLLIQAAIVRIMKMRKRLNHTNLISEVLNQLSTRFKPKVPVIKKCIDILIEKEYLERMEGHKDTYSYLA

binding: binds
Substance: Cullin1 (Cul1), E3 ubiquitin ligase (from UniProt Q24311 1-774)

From paper PMC6329818
